Results on two molecules are retold here after the supplement of paper PMC3414501.

The list shows a part of the results, in another mix than the full data.

In the test the test system is S. cerevisiae AD1-9 (efflux-pump deficient), vegetative growth in YPD. Put plainly: growth sensitivity score (doubling time z-score vs DMSO controls); higher = slower growth, strongly negative scores also mark growth inhibition (complete suppression), active = hit call of the paper. In short, it runs like this: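 Yeast (Saccharomyces cerevisiae BY4741 and AD1-9) was grown in rich medium in microtiter plates from a starting OD600 of 0.065, with optical density read every 15 min over 24 hours. The growth sensitivity score was the difference between compound and solvent-only means, divided by the solvent-only standard deviation. Every experiment had eight solvent-only wells.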

`Cc1cccc(CCN2CCC(C(=O)c3ccc(NS(C)(=O)=O)cc3)CC2)n1`: under “stock concentration (mM, diluted 1:100): 9.9”, the growth sensitivity score is inactive: -1.81. On to `Cc1c(C(=O)NN2CCCCC2)nn(-c2ccc(Cl)cc2Cl)c1-c1ccc(I)cc1`, for which the growth sensitivity score (stock concentration (mM, diluted 1:100): 10) was active: 40.2.
